In patent US12667571B2, “Uridine phosphorylase (UPase) inhibitors for treatment of liver conditions” (Tosk, Inc., priority 2019, dated 2026):

Tested on: plasma UR
Test: Plasma UR concentration versus plasma Compound 1 concentration after continuous sc osmotic-pump infusion
Format: in vivo
Conditions: FIG. 1; continuous sc infusion 667, 833 or 3000 mg/kg/day, BDF-1 male mice
Description: For this reason continuous infusion of compound I (authentic TK-112690, Batch TCY90108) to BDF-1 ♂ mice were administered via a sc implanted osmotic pumps and the UR plasma concentration measured, ^46 Deng Y, Wang Z V, Gordillo R, An Y, Zhang C, Liang Q, Yoshino J, Cautivo K M, De Brabander J, Elrnquist J K, Horton J D, Hill J A, Klein S, Scherer P E. An adipo-biliary-uridine axis that regulates energy homeostasis. Science 2017, 17; 355(6330)
Solutions of Compound I were prepared at a concentration of 500 mg/mL in sterile PBS. Osmotic pumps (ALZET® micro-osmotic pump 2001 D and 1003D, Alza Co) were loaded with 200 μL (2001D osmotic pump) and/or 100 μL (1003D osmotic pump) of TK-112690 solution.
BDF-1 male mice (n=6) were treated with a constant-rate infusion of 667, 833 or 3000 mg/kg/day doses of Compound I delivered via subcutaneously implanted osmotic pumps. Animals were anesthetized with 100 mg/kg ketamine prior to pump implantation. Surgical scissors were used to make an approximately 1 cm incision on the dorsal surface near the shoulder blade of animals. A hemostat was used to carve out a subcutaneous tunnel toward the anterior end of animal. Osmotic pumps were placed inside the subcutaneous tunnel. […]
A solid-phase extraction (SPE) of analytes (UR, Compound I and 5-FU) from plasma was conducted before HPLC analysis. […] Samples were transferred into fresh HPLC vials and analyzed. […]

`Cc1cn2c(nc1=O)O[C@H]1[C@H](O)[C@@H](CO)O[C@H]12` [Compound 1] was tested, and the “slope of regression line, plasma UR concentration versus plasma Compound 1 concentration” value was 0.010.
